Binding data for four molecules are collected here from paper PMC5500889.

Amino acid sequences for entries named in this document (tags omitted).
UniProt Q9VCE6: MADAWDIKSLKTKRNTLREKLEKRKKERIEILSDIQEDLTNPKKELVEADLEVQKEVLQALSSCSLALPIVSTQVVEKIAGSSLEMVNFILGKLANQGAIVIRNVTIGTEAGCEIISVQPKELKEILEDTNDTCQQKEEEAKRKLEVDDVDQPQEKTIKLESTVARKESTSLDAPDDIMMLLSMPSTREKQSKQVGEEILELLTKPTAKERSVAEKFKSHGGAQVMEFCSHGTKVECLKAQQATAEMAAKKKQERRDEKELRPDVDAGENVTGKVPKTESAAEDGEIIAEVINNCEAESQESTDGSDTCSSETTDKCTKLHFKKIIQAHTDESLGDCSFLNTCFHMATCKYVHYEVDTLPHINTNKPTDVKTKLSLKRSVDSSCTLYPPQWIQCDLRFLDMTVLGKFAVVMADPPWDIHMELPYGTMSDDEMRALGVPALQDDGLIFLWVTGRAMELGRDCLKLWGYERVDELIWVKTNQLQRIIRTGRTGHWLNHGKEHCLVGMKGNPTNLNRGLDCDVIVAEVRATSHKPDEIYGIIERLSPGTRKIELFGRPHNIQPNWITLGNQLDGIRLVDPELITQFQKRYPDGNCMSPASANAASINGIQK

For assay [1], the target named is T1, HA-tagged METTL14 (CG7818) (Drosophila) (UniProt Q9VLP7).
T1 sequence: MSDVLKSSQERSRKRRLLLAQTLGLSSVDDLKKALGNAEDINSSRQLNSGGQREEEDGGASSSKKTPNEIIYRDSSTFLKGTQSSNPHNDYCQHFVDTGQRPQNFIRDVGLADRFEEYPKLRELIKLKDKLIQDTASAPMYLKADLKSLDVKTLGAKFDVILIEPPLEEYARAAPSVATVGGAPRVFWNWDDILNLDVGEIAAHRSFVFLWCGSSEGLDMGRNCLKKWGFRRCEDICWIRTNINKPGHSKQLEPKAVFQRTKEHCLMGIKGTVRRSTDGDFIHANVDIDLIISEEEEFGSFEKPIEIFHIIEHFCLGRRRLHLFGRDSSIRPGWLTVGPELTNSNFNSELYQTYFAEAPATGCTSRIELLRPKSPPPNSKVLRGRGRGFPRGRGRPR
Briefly: co-IP; HA-tagged IME4 or METTL14 (0.5 ug) and a GFP-tagged construct (1.5 ug) co-transfected into S2 cells, 3 days; lysis in 10 mM Tris-HCl pH 7.5, 300 mM NaCl, 1 mM EDTA, 1% Triton X-100; cleared lysate on HA antibody (F-7) beads 2 h; five washes with 500 mM NaCl buffer; blotting for associated proteins.

Assay [2] concerns the target HA-tagged IME4 (Drosophila METTL3 ortholog, CG5933) (Drosophila) (UniProt Q9VCE6). The description is as above.
The target of assay [3] is T2, GFP-Nito (Spenito, Drosophila RBM15/RBM15B ortholog) (Drosophila) (UniProt Q7KMJ6).
T2 sequence: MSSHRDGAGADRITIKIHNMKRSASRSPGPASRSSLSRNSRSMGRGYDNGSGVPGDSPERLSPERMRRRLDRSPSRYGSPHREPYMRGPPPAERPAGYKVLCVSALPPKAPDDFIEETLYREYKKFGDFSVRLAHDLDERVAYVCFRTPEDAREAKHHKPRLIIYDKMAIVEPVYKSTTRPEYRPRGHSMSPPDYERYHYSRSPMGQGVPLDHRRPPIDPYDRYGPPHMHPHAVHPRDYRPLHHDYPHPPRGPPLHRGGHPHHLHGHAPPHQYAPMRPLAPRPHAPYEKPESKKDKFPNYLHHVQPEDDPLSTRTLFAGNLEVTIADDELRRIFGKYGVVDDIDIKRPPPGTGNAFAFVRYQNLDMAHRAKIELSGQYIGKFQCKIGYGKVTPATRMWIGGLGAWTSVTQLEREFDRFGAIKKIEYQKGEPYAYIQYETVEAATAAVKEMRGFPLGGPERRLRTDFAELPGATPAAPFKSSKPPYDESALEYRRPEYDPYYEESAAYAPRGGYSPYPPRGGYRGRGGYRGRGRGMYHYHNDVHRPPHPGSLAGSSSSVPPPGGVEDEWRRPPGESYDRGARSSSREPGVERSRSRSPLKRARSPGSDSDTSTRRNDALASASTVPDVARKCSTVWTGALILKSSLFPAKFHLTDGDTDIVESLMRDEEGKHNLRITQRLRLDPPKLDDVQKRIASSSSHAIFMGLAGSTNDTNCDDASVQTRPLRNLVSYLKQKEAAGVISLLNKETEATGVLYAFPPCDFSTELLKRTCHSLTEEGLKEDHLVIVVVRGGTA
In words: co-IP; GFP-Nito pulldown from transfected S2 cells, 2 days; lysis in 50 mM Tris pH 7.4, 150 mM NaCl, 1% NP-40; GFP-Trap beads 2 h at 4 C; two washes with lysis buffer; blotting for associated proteins.

Results are given in words; binding and its absence hold for the method and conditions named. Binding seen in cells or lysates may run through a third protein. Some entries that bind do so weakly or less than the wild type. Tags and fused reporters may be left off the sequences shown.

Consider “GFP-tagged IME4 (Drosophila METTL3 ortholog, CG5933) (from UniProt Q9VCE6 1-608)”, for which the binding result in assay [1] is “binds”.

B1: GFP-tagged METTL14 (CG7818) (protein, UniProt Q9VLP7 1-397)
chain: MSDVLKSSQERSRKRRLLLAQTLGLSSVDDLKKALGNAEDINSSRQLNSGGQREEEDGGASSSKKTPNEIIYRDSSTFLKGTQSSNPHNDYCQHFVDTGQRPQNFIRDVGLADRFEEYPKLRELIKLKDKLIQDTASAPMYLKADLKSLDVKTLGAKFDVILIEPPLEEYARAAPSVATVGGAPRVFWNWDDILNLDVGEIAAHRSFVFLWCGSSEGLDMGRNCLKKWGFRRCEDICWIRTNINKPGHSKQLEPKAVFQRTKEHCLMGIKGTVRRSTDGDFIHANVDIDLIISEEEEFGSFEKPIEIFHIIEHFCLGRRRLHLFGRDSSIRPGWLTVGPELTNSNFNSELYQTYFAEAPATGCTSRIELLRPKSPPPNSKVLRGRGRGFPRGRGRPR
As for B1, the binding result in assay [2] is “binds”.

B2: GFP-tagged Fl(2)d (Drosophila WTAP ortholog) (protein, UniProt Q9Y091 1-536)
chain: MSVAAMTMDDQRPCMNSYDKMPPTKYEQNLNILNSSQNSGATGGPASPTPSGLEDHHHHHHPHPHHHHHQEQQQQQQQQQHLQQQQQQQQQQHAAAVAEAVAAAEQRQRLLEDEIENLKLEQVRMAQQCADAQRREKILMRRLANKEQEFQDYVSQIAEYKAQQAPTALALRTALLDPAVNLLFERLKKELKATKAKLEETQNELSAWKFTPDSNTGKRLMAKCRLLYQENEELGKMTSNGRLAKLETELAMQKSFSEEVKKSQSELDDFLQELDEDVEGMQSTILFLQQELKTTRDRIQTLEKENAQLKQAIKDEVVAPAAATNGGTNTTINKLETIHEDACMANNPTNPDCYNGNTNNEQIAAVPQIPLSDDGSNMNGNAARLARKRNYQEEEALPTVVVVPTPTPVGNNVQEAPPIREVTAPRTLPPKKSKLRGITTRRNSQLEEDHQPVTTPVAVPMIVDNAVAGMASEEAAAAAAAVNNSNTGIIPETGVQVGVPVEGGDPGAPAAPGRILTRRRSVRMQQNGSGAVDYST
Take B2: the binding result in assay [2] and in assay [1] was “binds weakly” each time.

B3: Fl(2)d (Drosophila WTAP ortholog), prey of the GFP-Nito pulldown (protein, UniProt Q9Y091 1-536)
chain: MSVAAMTMDDQRPCMNSYDKMPPTKYEQNLNILNSSQNSGATGGPASPTPSGLEDHHHHHHPHPHHHHHQEQQQQQQQQQHLQQQQQQQQQQHAAAVAEAVAAAEQRQRLLEDEIENLKLEQVRMAQQCADAQRREKILMRRLANKEQEFQDYVSQIAEYKAQQAPTALALRTALLDPAVNLLFERLKKELKATKAKLEETQNELSAWKFTPDSNTGKRLMAKCRLLYQENEELGKMTSNGRLAKLETELAMQKSFSEEVKKSQSELDDFLQELDEDVEGMQSTILFLQQELKTTRDRIQTLEKENAQLKQAIKDEVVAPAAATNGGTNTTINKLETIHEDACMANNPTNPDCYNGNTNNEQIAAVPQIPLSDDGSNMNGNAARLARKRNYQEEEALPTVVVVPTPTPVGNNVQEAPPIREVTAPRTLPPKKSKLRGITTRRNSQLEEDHQPVTTPVAVPMIVDNAVAGMASEEAAAAAAAVNNSNTGIIPETGVQVGVPVEGGDPGAPAAPGRILTRRRSVRMQQNGSGAVDYST
For the molecule B3, the binding entry in assay [3] was “binds”.
